Measurements published in PubChem BioAssay AID2685 (National Center for Advancing Translational Sciences (NCATS), 2010).
Some of the results follow. Shown are side measurements of this screen, not its main read-out; they come without a call. Compounds called inactive in the main read-out are mostly missing here. Potencies come from curve fits of mixed quality, noted in brackets.

Assay: qHTS Assay for Lipid Storage Modulators in Drosophila S3 Cells;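 as to cell number change: cells counted by Cell Tracker Red CMTPX staining in the red channel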
Details: BODIPY lipid droplet fluorescence, 18-24 h; for cell number change: measured here: cell count max response, cells fed with added oleic acid
Procedure, shortened: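 Laser-scanning cytometry quantifies lipid droplet accumulation (500–530 nm total intensity; droplet/cell object ratio) in oleic acid-fed (400 uM added) Drosophila S3 cells treated with a concentration series. 20 uM Triacsin C defined 100% inhibition.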

[1] = measured here: lipid fluorescence (Fed channel) AC50, cells fed with added oleic acid
[2] = measured here: cell number channel AC50, cells fed with added oleic acid

SMILES: CCOc1ccc(C(=O)Nc2ccc(N3CCN(C)CC3)cc2)cc1[N+](=O)[O-]
- AC50 [1]: 0.206 µM [rising, full curve, poor fit]

SMILES: Cc1ccc(-c2csc3ncn(/N=C/N(C)C)c(=O)c23)o1
- cell number change: 20.6%
- AC50 [1]: 14.6 µM [rising, partial curve]

SMILES: CN(C)C(=O)CSc1nnc(CCCCCNC(=O)OC(C)(C)C)o1
- cell number change: 6.81%
- AC50 [1]: 0.731 µM [falling, single point]

SMILES: COc1ccc(CNC(=O)CN(C(=O)CCC(=O)Nc2ccccn2)c2cc(C)ccc2C)cc1
- cell number change: 7.62%

SMILES: Cc1sc2ncn(CC(=O)N3CCN(c4ccccc4F)CC3)c(=O)c2c1S(=O)(=O)N1CCOCC1
- cell number change: 20.8%
- AC50 [1]: 0.58 µM [rising, single point]

SMILES: Cc1c(Cc2ccc3c(c2)OCO3)sc(NC(=O)c2cccc3ccccc23)c1C(N)=O
- cell number change: 17.4%
- AC50 [1]: 0.461 µM [rising, full curve]

SMILES: CCCCCCOc1cccc(N)c1
- cell number change: 8.66%
- AC50 [1]: 0.517 µM [falling, full curve, poor fit]

SMILES: CN1C(=O)N(CC(=O)Nc2ccc(C(F)(F)F)cc2)C(=O)C12CCCCC2
- cell number change: 9.64%

SMILES: COc1ccccc1C(=O)NCCNC(=O)c1ccc(C)nc1
- cell number change: 24.4%
- AC50 [1]: 29.1 µM [falling, single point]

SMILES: Cc1ccc(S(=O)(=O)CCC(=O)Nc2ccccc2N2CCCC2)cc1
- cell number change: 18.2%
- AC50 [1]: 0.082 µM [rising, full curve, poor fit]

SMILES: CN(c1ccc(O)cc1)S(=O)(=O)c1ccc2ccccc2c1
- cell number change: 13.4%
- AC50 [1]: 29.1 µM [falling, single point]

SMILES: Cc1ccc(C=Nc2ccc(N(C)C)cc2)o1
- cell number change: -17.9%
- AC50 [1]: 32.6 µM [falling, single point]

SMILES: COc1ccc(Nc2cc(Nc3ccccc3)ncn2)cc1
- cell number change: 8.33%

SMILES: Cc1cc(C(C)(C)C)cc(S(=O)(=O)Nc2cccc(C(=O)O)c2)c1C
- cell number change: -50.4%
- AC50 [2]: 29.1 µM [falling, single point]

SMILES: CCCCOc1ccc(-c2nnn(CCC(=O)N3CCOCC3)n2)cc1
- cell number change: -8.52%

SMILES: COc1cc2c(cc1OC)-c1cc(OCc3ccccc3Cl)nc(=O)n1CC2
- cell number change: -8.56%
- AC50 [2]: 0.206 µM [rising, full curve, poor fit]
- AC50 [1]: 0.13 µM [rising, full curve, poor fit]

SMILES: Cc1ccc2cc3c(nc2c1)N(Cc1ccco1)CC3
- AC50 [2]: 6.51 µM [rising, single point]

SMILES: Cc1noc(C)c1C(=O)Nc1nc2ccc(F)cc2s1
- cell number change: 9.66%
- AC50 [2]: 0.58 µM [rising, partial curve, poor fit]
- AC50 [1]: 2.59 µM [rising, single point]

SMILES: COc1ccccc1CCNC(=O)c1cnccn1
- cell number change: 27.7%
- AC50 [2]: 2.31 µM [rising, full curve, poor fit]
- AC50 [1]: 4.11 µM [rising, partial curve]

SMILES: O=C(NC(=S)N1CCCCC1CO)C12CC3CC(CC(C3)C1)C2 (stereo unspecified)
- cell number change: -28.7%

SMILES: Cc1ccc(CSc2nnc(C)c(=O)n2N)cc1
- cell number change: 21%
- AC50 [1]: 14.6 µM [rising, partial curve, poor fit]

SMILES: Cc1ccc(CNC(=O)COC(=O)c2cncc(Br)c2)cc1
- cell number change: -20.1%
- AC50 [2]: 0.00651 µM [falling, full curve, poor fit]
- AC50 [1]: 0.00517 µM [falling, full curve, poor fit]

SMILES: CN1CCN(C(=O)c2cccc(-c3cc(O)c4ncccc4c3)c2)CC1
- cell number change: 16.8%
- AC50 [1]: 20.6 µM [rising, single point]

SMILES: Cc1ccc(NC(=S)N2CCN(C(=O)c3ccccc3)CC2)c(C)c1
- cell number change: -25.6%
- AC50 [2]: 0.58 µM [falling, partial curve, poor fit]
- AC50 [1]: 1.64 µM [falling, full curve, poor fit]

SMILES: Cc1ccnc(NC(=O)c2ccc(COc3ccc(Cl)cc3)o2)c1
- cell number change: -4.63%

SMILES: CN(CC(=O)O/N=C(\N)c1ccc(Br)cc1)S(=O)(=O)c1ccccc1
- cell number change: 35.5%
- AC50 [2]: 0.355 µM [rising, full curve, poor fit]
- AC50 [1]: 0.112 µM [rising, full curve, poor fit]

SMILES: S=C(Nc1ccccc1)N1CCN(C(=S)c2ccccc2)CC1
- cell number change: 16.5%
- AC50 [1]: 14.1 µM [rising, single point]

SMILES: O=C(c1ccccc1Cc1ccccc1)N1CCN(S(=O)(=O)c2ccccc2Br)CC1
- cell number change: 31.4%
- AC50 [2]: 13 µM [rising, single point]

SMILES: O=C(NCC1COc2ccccc2O1)C1CCC(CNc2c(N3CCCCC3)c(=O)c2=O)CC1 (stereo unspecified)
- cell number change: -3.85%

SMILES: CCOC(=O)c1c(NC(=O)Cn2ccsc2=N)sc(C)c1C
- cell number change: 31.6%
- AC50 [2]: 0.184 µM [rising, full curve, poor fit]
- AC50 [1]: 6.51 µM [rising, full curve]

SMILES: Cc1ccc(C)c(Cn2nnc3c(=O)[nH]c(C4CCCN(C(=O)C5CCCCC5)C4)nc32)c1 (stereo unspecified)
- cell number change: -49.3%
- AC50 [2]: 29.1 µM [falling, single point]
- AC50 [1]: 0.731 µM [rising, full curve]

SMILES: CCc1nc(C)cc(N)c1OCc1ccccc1
- cell number change: -10.7%
- AC50 [2]: 0.00461 µM [falling, full curve, poor fit]

SMILES: CCOC(=O)N1CCN(C(=O)Cn2nc(C)c3sc4ccccc4c3c2=O)CC1
- cell number change: -5.87%
- AC50 [1]: 29.1 µM [rising, single point]

SMILES: COCC(=O)Nc1nnc(-c2ccc(C(C)(C)C)cc2)s1
- cell number change: 7.6%
- AC50 [2]: 0.731 µM [falling, full curve]
- AC50 [1]: 0.651 µM [falling, full curve]

SMILES: O=C(Nn1cnnc1)c1cc(-c2cccc(Br)c2)nc2ccccc12
- cell number change: 26.3%
- AC50 [1]: 8.2 µM [rising, partial curve, poor fit]

SMILES: CC(C(=O)Nc1ncc2c(n1)CC(C)(C)CC2=O)N1C(=O)c2ccccc2C1=O (stereo unspecified)
- cell number change: 2.15%
- AC50 [1]: 0.0731 µM [falling, full curve, poor fit]

SMILES: CSc1ncc(Cl)c(C(=O)Nc2cc(C)ccc2C)n1
- cell number change: 31.1%
- AC50 [1]: 4.11 µM [rising, partial curve, poor fit]

SMILES: CCC(=O)Nc1nc2ccc3sc(C)nc3c2s1
- cell number change: -24.6%
- AC50 [1]: 0.164 µM [falling, full curve, poor fit]

SMILES: CCOc1ccc(CCNC(=O)C2CCCN(c3nn4c(=O)cc(C)nc4s3)C2)cc1OCC (stereo unspecified)
- cell number change: 4.26%
- AC50 [1]: 18.4 µM [rising, single point]

SMILES: C/C(=N\N=c1/sc2ccccc2n1C)c1ccc(N2CCOCC2)cc1
- AC50 [2]: 2.91 µM [rising, single point]
- AC50 [1]: 6.51 µM [rising, single point]

SMILES: CCOC(=O)Cc1csc(NC(=S)NC(=O)c2ccc([N+](=O)[O-])cc2)n1
- cell number change: 34%
- AC50 [2]: 11.6 µM [rising, partial curve]

SMILES: O=C(Nc1ccccn1)[C@@H]1CCC(=O)N1C(=O)OCc1ccccc1
- cell number change: 10.5%
- AC50 [1]: 29.1 µM [rising, single point]

SMILES: COc1ccc(CN2CCN(C(=O)c3ccc(F)cc3)CC2)c(OC)c1
- cell number change: 8.8%
- AC50 [1]: 0.13 µM [falling, full curve, poor fit]

SMILES: COc1cccc(CNn2c(-c3cccc(C)c3)nc3ccccc3c2=O)c1
- AC50 [2]: 0.651 µM [rising, full curve]
- AC50 [1]: 10.3 µM [rising, partial curve]

SMILES: CCCS(=O)(=O)N1CCCC(C(=O)NCCN(Cc2ccccc2)C(C)C)C1 (stereo unspecified)
- cell number change: 23.3%
- AC50 [1]: 4.61 µM [rising, full curve, poor fit]

SMILES: Cc1csc(NC(=O)CN2C(=O)c3ccccc3C2=O)c1C(N)=O
- cell number change: 7.73%
- AC50 [2]: 0.731 µM [rising, single point]
- AC50 [1]: 0.731 µM [rising, single point]

SMILES: COc1ccc(-c2oc3ncnc(NCCCO)c3c2-c2ccc(OC)cc2)cc1
- cell number change: -45.9%
- AC50 [2]: 2.31 µM [falling, partial curve]

SMILES: CCOP(=O)(c1ccccc1)C1(C#N)CCCC1 (stereo unspecified)
- cell number change: 5.76%

SMILES: O=C(NNC(=O)C1CCC1)c1cccc(Cl)c1
- cell number change: -12.7%
- AC50 [1]: 0.184 µM [falling, full curve, poor fit]

SMILES: O=C(NC(Cc1ccccc1)C(=O)Oc1ccc2c(C(F)(F)F)cc(=O)oc2c1)OCc1ccccc1 (stereo unspecified)
- cell number change: -2.9%
- AC50 [2]: 6.51 µM [rising, single point]
- AC50 [1]: 29.1 µM [rising, single point]

SMILES: C=CCn1ccc2c([N+](=O)[O-])cccc2c1=O
- AC50 [2]: 0.82 µM [rising, single point]

SMILES: O=C(COC(=O)CCCN1C(=O)c2ccccc2C1=O)Nc1ncc(Cl)cc1Cl
- cell number change: 2.94%

SMILES: CC(=C\c1ccco1)/C=C(\C#N)C(=O)NCCc1c[nH]c2ccccc12
- cell number change: -7.04%
- AC50 [1]: 7.31 µM [falling, partial curve]

SMILES: CC(C)(C)c1ccc(NC(=O)C2=CC=CN3CCS(=O)(=O)N=C23)cc1
- cell number change: 0.137%
- AC50 [2]: 0.0116 µM [rising, full curve, poor fit]
- AC50 [1]: 0.00411 µM [rising, full curve, poor fit]

SMILES: Cc1cccc(Oc2ccc(S(=O)(=O)N3CCCCC3)cc2NC(=O)C2=COCCO2)c1
- cell number change: -11.4%

SMILES: Cc1nn(C)cc1C1C(C#N)=C(N)N(c2ccc(F)c([N+](=O)[O-])c2)C2=C1C(=O)CCC2 (stereo unspecified)
- cell number change: 11.7%
- AC50 [1]: 1.84 µM [rising, partial curve, poor fit]

SMILES: O=C(O)CN1C(=O)/C(=C\c2cccc(OCc3ccc(Cl)cc3Cl)c2)SC1=S
- cell number change: -6.61%
- AC50 [1]: 0.116 µM [rising, full curve, poor fit]

SMILES: Cc1c(Br)cc(C(=O)N2CCCC2)c(C)c1C
- cell number change: -68.8%
- AC50 [2]: 23.1 µM [falling, partial curve, poor fit]
- AC50 [1]: 18.4 µM [falling, partial curve]
